In patent US20240360177A1 (priority 2021, published 2024):
Starred links: 1 amine or outer side, 2 acyl side, 3 side chain; linkers in the order of their positions; H or OH if unused. Non-standard residues stand in square brackets, D forms with d. NH(CH2)9CO = O=C(CCCCCCCCCN[*:1])[*:2]; Aoc = NCCCCCCCC(=O)O

Assay: general procedure: Fmoc solid-phase peptide synthesis; HBTU/HOBt and DIEA
Conditions: whole synthesis, Analytical HPLC on a 5-micron C18 analytical column, water-acetonitrile buffers containing 0.1% TFA, acetate or chloride form by anion exchange resin

Substance | final HPLC purity
rRr-(ButylGly)-rRr-(ButylGly)-rRrR-(ButylGly)-rRrR-NH2 | 94.3%
H-[dR]R[dR][NH(CH2)9CO][dR]R[dR][Aoc][dR]R[dR]R[Aoc][dR]R[dR]R-OH (SMILES N=C(N)NCCC[C@@H](N)C(=O)N[C@@H](CCCNC(=N)N)C(=O)N[C@H](CCCNC(=N)N)C(=O)NCCCCCCCCCC(=O)N[C@H](CCCNC(=N)N)C(=O)N[C@@H](CCCNC(=N)N)C(=O)N[C@H](CCCNC(=N)N)C(=O)NCCCCCCCC(=O)N[C@H](CCCNC(=N)N)C(=O)N[C@@H](CCCNC(=N)N)C(=O)N[C@H](CCCNC(=N)N)C(=O)N[C@@H](CCCNC(=N)N)C(=O)NCCCCCCCC(=O)N[C@H](CCCNC(=N)N)C(=O)N[C@@H](CCCNC(=N)N)C(=O)N[C@H](CCCNC(=N)N)C(=O)N[C@@H](CCCNC(=N)N)C(=O)O) | 96.6%
H-[dR]R[dR][Aoc][dR]R[dR][Aoc][dR]R[dR]R[Aoc][dR]R[dR]R-NH2 (SMILES N=C(N)NCCC[C@@H](N)C(=O)N[C@@H](CCCNC(=N)N)C(=O)N[C@H](CCCNC(=N)N)C(=O)NCCCCCCCC(=O)N[C@H](CCCNC(=N)N)C(=O)N[C@@H](CCCNC(=N)N)C(=O)N[C@H](CCCNC(=N)N)C(=O)NCCCCCCCC(=O)N[C@H](CCCNC(=N)N)C(=O)N[C@@H](CCCNC(=N)N)C(=O)N[C@H](CCCNC(=N)N)C(=O)N[C@@H](CCCNC(=N)N)C(=O)NCCCCCCCC(=O)N[C@H](CCCNC(=N)N)C(=O)N[C@@H](CCCNC(=N)N)C(=O)N[C@H](CCCNC(=N)N)C(=O)N[C@@H](CCCNC(=N)N)C(N)=O) | 92.7%
